Measured values as given in PubChem BioAssay AID2685 (National Center for Advancing Translational Sciences (NCATS), 2010).
Among all 320,000 compounds or so, about 2,100 (0.66%) were called active. The shares of active, inactive and inconclusive entries below differ from those in the screen. Calls come from the whole dose curve; as a rule, active = well fitted inhibition curve with a large enough effect in the signal ratio, with a control signal flat (not every such curve was filed as active); inconclusive = small, poorly fitted or top-dose-only effect, or effect the other way, or a change in a side signal; inactive = flat fitted curve, though single readings scatter; the % refers to the signal ratio. A potency beside an inconclusive call is a rough fit, not a confirmed value.

assay: qHTS Assay for Lipid Storage Modulators in Drosophila S3 Cells; settings: BODIPY lipid droplet fluorescence, 18-24 h, cells fed with added oleic acid; lipid storage change, negative = inhibition: at 46.1 µM (top of the series) unless noted
Procedure, shortened: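 Drosophila S3 cells loaded with oleic acid (400 uM, as added) and compounds at several concentrations; lipid droplets imaged by 488-nm laser-scanning cytometry, 500–530 nm intensity and object ratio to cell channel. Percent activity normalized to 20 uM Triacsin C.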
% is set by controls: 0 for no effect and ±100 for the full control effect; potency is the fitted concentration of half-maximal effect.

SMILES | lipid storage change, negative = inhibition | Potency
CSc1nc2nc3c(cc2c(=O)n1-c1ccccc1C)COC(C)(C)C3 | inconclusive: -3.66% | 
Cc1ccccc1NC(=O)C(c1ccccc1)C1CCCC1 (centres undefined) |  | inconclusive: 29.1 µM [falling, single point]
CCCN(CC(=O)Nc1ccccc1OC)C(=O)c1ccc(S(=O)(=O)NCc2ccco2)cc1 | inconclusive: 5.44% | 
CCCC[C@@H](CNC)NC[C@H](NCCCCC1CCCCC1)C(C)C | inconclusive: 19.9% | 
O=C(CSc1nnc(SCc2ccc(Cl)cc2)s1)N1CCOCC1 | inconclusive: 4.84% | 
O=C(O)c1ccc(CS(=O)(=O)c2ccc(Br)cc2)cc1 |  | inconclusive: 29.1 µM [activator, partial curve]
CCn1cc(C2=NOC(C(=O)Nc3ccc4c(c3)OCO4)C2)c(C)n1 (centres undefined) |  | active: 7.31 µM
CCc1nnc(NC(=O)CSc2nccn2-c2ccccc2)s1 | inconclusive: 23.2% | 
O=C(NCC(O)c1ccc([N+](=O)[O-])cc1)c1cccc(S(=O)(=O)N2CCOCC2)c1 (centres undefined) | inconclusive: 22.4% | 
COC(=O)c1nn(-c2ccccc2)c2nnc(Cc3ccc(C)cc3)c(=O)n12 | inconclusive: 1.68% | 
CCN(CC(=O)N1CCCC1)S(=O)(=O)c1cc(C)ccc1OC | inconclusive: 15% | 
CCOC(=O)CNC(=O)c1sc(NC(=O)c2ccccc2)nc1C | inactive: 13.4% | 
CC(C)C(c1nnnn1Cc1ccco1)N1CCC(C(N)=O)CC1 (centres undefined) | inactive: -0.139% | 
COc1cc(/C=C2\C(=N)N3N=CSC3=NC2=O)ccc1OS(=O)(=O)c1ccccc1[N+](=O)[O-] | inactive: -23.3% | 
COc1cccc(-c2nc(CS(=O)(=O)CC(=O)NCCCN3CC(C)CC(C)C3)c(C)o2)c1 (centres undefined) | inconclusive: -9.66% | 
CC(C)CC(=O)NC(=S)Nc1cccc2nsnc12 | inconclusive: 23.2% | 
COc1ccc(C)cc1NC(=O)C(Sc1ccccc1)c1ccccc1 (centres undefined) |  | inconclusive: 1.3 µM [activator, full curve]
Cc1ccc2oc(=O)c3cnn(CC(=O)N(CCCN4CCOCC4)Cc4ccco4)c3c2c1 | inconclusive: 5.37% | 
O=C(O)Cn1cnc2scc(-c3cccs3)c2c1=O | inconclusive: 68.6% | 
CCOc1ccc(C2=C(C=Nc3c(C)n(C)n(-c4ccccc4)c3=O)C(c3ccc(F)cc3)c3ccccc3O2)cc1 (centres undefined) | inconclusive: 0.377% | 

SMILES | lipid storage change, negative = inhibition | Potency
NC(=O)CC(NC(=O)c1ccccc1)c1ccc(NCCc2ccc(F)cc2)c([N+](=O)[O-])c1 (centres undefined) | inconclusive: -64% | 
Cn1c(-c2ccc(F)cc2)cnc1NCc1ccccc1F | inconclusive: 13.7% | 
O=c1[nH]c(=O)n(C2CCCO2)cc1Br (centres undefined) | inconclusive: -19.8% | 
O=C(O)c1ccccc1SCC(=O)N1c2ccccc2Sc2ccccc21 | inconclusive: -23.2% | 
COC(=O)C1=C(NC(=O)c2ccc(Br)cc2)CCS1 | inconclusive: 8.35% | 
O=C(CN1C(=O)c2ccccc2S1(=O)=O)c1ccc(F)c(F)c1 | inconclusive: 11.9% | 
O=S(=O)(NC1CCCC1)c1cc(F)ccc1F | inconclusive: -84.1% | 
CCOC(=O)CN(C(=O)CNC(=O)c1ccco1)C(C(=O)NC1CCCCC1)c1cccc(OC)c1 (centres undefined) |  | inconclusive: 2.59 µM [falling, single point]
Cc1ccc(S(=O)(=O)N2CCCCC2)cc1NC(=O)CCN1C(=O)C2CC=CCC2C1=O (centres undefined) |  | inconclusive: 2.06 µM [activator, partial curve, poor fit]
Cc1ccc(CNC(=O)Cn2nnc(C(=O)Nc3cccc(C)c3C)c2N)cc1 | inconclusive: -19.1% | 
CN(CCO)CCOCCOc1cccc2ccccc12 | inconclusive: -5.17% | 
Cc1ccc(S(=O)(=O)N2CCN(c3ccccc3)CC2)cc1C(=O)NC1CCCCC1 |  | inconclusive: 2.31 µM [falling, single point]
Cn1c(N)c(C(=O)COC(=O)Cn2cc(C(F)(F)F)ccc2=O)c(=O)n(C)c1=O | inconclusive: 41.7% | 
O=C(/C=C/c1c(Cl)nc2ccccn12)N1CCN(c2ccccc2F)CC1 | inconclusive: 48.7% | 
COC(=O)[C@@H]1C[C@H]2CC[C@H](O)C[C@H]2N1Cc1ccc(Cl)cc1 | inconclusive: 18.4% | 
CC(C)(C)C1CCC(OC(=O)CN2CCOCC2)CC1 (centres undefined) |  | inconclusive: 2.91 µM [activator, partial curve]
COc1ccc(CNC(=O)Cn2nc([N+](=O)[O-])cc2C)cc1 |  | inconclusive: 0.82 µM [activator, partial curve, poor fit]
O=c1c(Cc2ccc(Cl)cc2Cl)c(O)ccn1CCCN1CCOCC1 |  | inconclusive: 31.6 µM [falling, single point]
CC(C)CC1(C(=O)O)NC(c2ccccc2O)C2C(=O)N(C(C)C)C(=O)C21 (centres undefined) |  | inconclusive: 2.91 µM [falling, single point]

Record cards, from the list above:
Cc1ccc(S(=O)(=O)N2CCN(c3ccccc3)CC2)cc1C(=O)NC1CCCCC1 as listed: Potency: inconclusive: 2.31 µM [falling, single point]
COC(=O)C1=C(NC(=O)c2ccc(Br)cc2)CCS1 as listed: lipid storage change, negative = inhibition: inconclusive: 8.35%
